The values below are quoted from earlier work in patent publication US5504116A (Research Foundation of State University of New York, priority 1994, dated 1996).

The conditions of data set [1]: continuous epidural anesthesia for labor; cited from earlier work.
The test system of data set [2] is sodium channel of rat cardiac ventricular myocyte. To be noted: read-out: ED50 for blocking the sodium channel; cited from earlier work.

On to `CCN(CC)CC(=O)Nc1c(C)cccc1C` [lidocaine], for which the “maternal serum concentration attained” value in data set [1] was 2.5 µg/mL. Besides, the IC50 in data set [2] is 500 µM.
